Article PMC9433374
Where two headings read alike, the source gives them in different places. Results are given in words; binding and its absence hold for the method and conditions named. Binding seen in cells or lysates may run through a third protein. Some results given as binding are weak or reduced against the parent protein; the word gives no strength.

By UniProt entry, the sequences of proteins in these tests, tags left out.
UniProt Q13164: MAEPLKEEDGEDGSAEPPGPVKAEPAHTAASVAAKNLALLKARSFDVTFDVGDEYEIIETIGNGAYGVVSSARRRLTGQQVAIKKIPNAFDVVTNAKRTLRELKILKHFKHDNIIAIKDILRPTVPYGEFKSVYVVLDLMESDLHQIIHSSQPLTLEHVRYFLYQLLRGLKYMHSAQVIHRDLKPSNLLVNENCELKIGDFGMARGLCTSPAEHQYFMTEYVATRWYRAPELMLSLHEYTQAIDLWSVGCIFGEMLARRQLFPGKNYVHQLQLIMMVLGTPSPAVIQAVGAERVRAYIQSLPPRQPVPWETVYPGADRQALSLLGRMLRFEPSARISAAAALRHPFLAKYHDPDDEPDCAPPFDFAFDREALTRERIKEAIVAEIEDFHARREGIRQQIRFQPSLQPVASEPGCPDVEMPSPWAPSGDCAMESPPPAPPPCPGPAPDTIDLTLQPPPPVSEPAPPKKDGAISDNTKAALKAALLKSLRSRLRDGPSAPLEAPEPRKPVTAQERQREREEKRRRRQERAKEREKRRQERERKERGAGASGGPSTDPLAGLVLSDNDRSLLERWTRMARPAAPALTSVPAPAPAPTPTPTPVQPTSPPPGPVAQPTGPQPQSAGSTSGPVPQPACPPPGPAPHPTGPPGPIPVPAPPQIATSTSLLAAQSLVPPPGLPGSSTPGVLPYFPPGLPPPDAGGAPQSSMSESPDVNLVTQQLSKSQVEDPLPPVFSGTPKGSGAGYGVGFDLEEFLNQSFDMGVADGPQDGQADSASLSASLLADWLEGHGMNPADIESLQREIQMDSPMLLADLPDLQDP
UniProt P50148: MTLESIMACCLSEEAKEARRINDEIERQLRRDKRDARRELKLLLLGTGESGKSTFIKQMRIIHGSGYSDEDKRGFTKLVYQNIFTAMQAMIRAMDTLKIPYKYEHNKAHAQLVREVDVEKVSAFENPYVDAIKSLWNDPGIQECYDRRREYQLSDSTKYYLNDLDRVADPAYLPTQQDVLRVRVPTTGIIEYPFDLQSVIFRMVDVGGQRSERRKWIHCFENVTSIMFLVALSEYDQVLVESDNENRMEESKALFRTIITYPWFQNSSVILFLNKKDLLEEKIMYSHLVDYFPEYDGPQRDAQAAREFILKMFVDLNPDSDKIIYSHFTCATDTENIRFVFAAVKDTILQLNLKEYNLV
UniProt Q06413: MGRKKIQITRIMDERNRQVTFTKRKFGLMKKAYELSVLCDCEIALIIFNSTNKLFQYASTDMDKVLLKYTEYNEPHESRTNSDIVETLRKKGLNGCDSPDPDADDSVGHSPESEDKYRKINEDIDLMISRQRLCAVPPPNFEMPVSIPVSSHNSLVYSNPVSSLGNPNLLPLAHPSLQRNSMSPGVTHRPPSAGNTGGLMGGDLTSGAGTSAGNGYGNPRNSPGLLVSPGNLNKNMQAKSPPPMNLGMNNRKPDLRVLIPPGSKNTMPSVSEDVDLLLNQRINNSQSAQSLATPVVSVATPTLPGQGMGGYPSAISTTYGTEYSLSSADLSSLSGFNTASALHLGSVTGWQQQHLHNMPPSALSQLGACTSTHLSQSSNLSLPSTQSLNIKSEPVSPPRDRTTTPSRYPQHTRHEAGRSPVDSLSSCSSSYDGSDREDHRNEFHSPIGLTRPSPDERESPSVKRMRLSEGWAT
UniProt P05412: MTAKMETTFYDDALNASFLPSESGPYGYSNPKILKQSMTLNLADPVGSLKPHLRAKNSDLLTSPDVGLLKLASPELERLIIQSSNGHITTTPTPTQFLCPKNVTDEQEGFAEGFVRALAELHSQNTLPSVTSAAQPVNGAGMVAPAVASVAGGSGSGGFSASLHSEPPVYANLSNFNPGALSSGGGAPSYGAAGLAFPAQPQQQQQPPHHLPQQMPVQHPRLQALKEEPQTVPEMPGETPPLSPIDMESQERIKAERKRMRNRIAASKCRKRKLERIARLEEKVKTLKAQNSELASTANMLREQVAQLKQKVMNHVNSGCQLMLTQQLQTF
UniProt P01100: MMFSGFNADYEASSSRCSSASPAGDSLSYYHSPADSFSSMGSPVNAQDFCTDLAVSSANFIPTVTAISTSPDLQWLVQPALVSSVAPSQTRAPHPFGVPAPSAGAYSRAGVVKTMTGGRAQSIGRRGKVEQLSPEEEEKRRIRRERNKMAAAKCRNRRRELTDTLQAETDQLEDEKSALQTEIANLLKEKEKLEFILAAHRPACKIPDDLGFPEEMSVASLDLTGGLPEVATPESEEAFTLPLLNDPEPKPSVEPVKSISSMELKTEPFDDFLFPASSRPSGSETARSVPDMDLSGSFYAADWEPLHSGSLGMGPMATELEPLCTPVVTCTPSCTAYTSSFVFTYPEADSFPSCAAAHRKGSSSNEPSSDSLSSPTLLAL
UniProt P01106: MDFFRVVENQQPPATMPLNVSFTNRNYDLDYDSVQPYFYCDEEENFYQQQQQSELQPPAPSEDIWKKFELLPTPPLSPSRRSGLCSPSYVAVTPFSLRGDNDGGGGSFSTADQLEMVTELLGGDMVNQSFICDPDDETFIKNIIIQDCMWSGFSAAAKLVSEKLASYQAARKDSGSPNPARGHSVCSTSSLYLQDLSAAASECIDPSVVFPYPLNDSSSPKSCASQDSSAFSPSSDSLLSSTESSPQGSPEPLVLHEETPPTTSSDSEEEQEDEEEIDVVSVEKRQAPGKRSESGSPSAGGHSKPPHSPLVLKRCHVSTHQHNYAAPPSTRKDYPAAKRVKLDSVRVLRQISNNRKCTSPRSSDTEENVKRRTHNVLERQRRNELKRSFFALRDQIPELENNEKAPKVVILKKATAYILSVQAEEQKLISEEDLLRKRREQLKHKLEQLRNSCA

What was measured:
Assay in all cases: co-IP; endogenous proteins; IP antibody (anti-ERK5, anti-Gαq or anti-β-arrestin) or IgG isotype on protein A/G magnetic beads, 1 h at room temperature with lysates of CAFs with sa-NC or sa-OXTR; beads washed five times with lysis buffer; immunoblot
[1] = biological target: ERK5 (human (endogenous in OSCC patient-derived CAFs)) (UniProt Q13164)
[2] = biological target: Gαq (human (endogenous in OSCC patient-derived CAFs)) (UniProt P50148)
[3] = biological target: Gαq (human (endogenous in OSCC patient-derived CAFs)) (UniProt P50148); remark: listed apart in the source
[4] = biological target: ERK5 (human (endogenous in OSCC patient-derived CAFs)) (UniProt Q13164); remark: listed apart in the source

Molecule	binding [1]	other results
MEF2C (from UniProt Q06413 1-473)	binds	
c-jun (from UniProt P05412 1-331)	binds	
ERK5 (from UniProt Q13164 1-816) (enzyme)		binding [2]: binds
protein kinase C (PKC)ζ (enzyme, UniProt Q05513 1-592) MPSRTGPKMEGSGGRVRLKAHYGGDIFITSVDAATTFEELCEEVRDMCRLHQQHPLTLKWVDSEGDPCTVSSQMELEEAFRLARQCRDEGLIIHVFPSTPEQPGLPCPGEDKSIYRRGARRWRKLYRANGHLFQAKRFNRRAYCGQCSERIWGLARQGYRCINCKLLVHKRCHGLVPLTCRKHMDSVMPSQEPPVDDKNEDADLPSEETDGIAYISSSRKHDSIKDDSEDLKPVIDGMDGIKISQGLGLQDFDLIRVIGRGSYAKVLLVRLKKNDQIYAMKVVKKELVHDDEDIDWVQTEKHVFEQASSNPFLVGLHSCFQTTSRLFLVIEYVNGGDLMFHMQRQRKLPEEHARFYAAEICIALNFLHERGIIYRDLKLDNVLLDADGHIKLTDYGMCKEGLGPGDTTSTFCGTPNYIAPEILRGEEYGFSVDWWALGVLMFEMMAGRSPFDIITDNPDMNTEDYLFQVILEKPIRIPRFLSVKASHVLKGFLNKDPKERLGCRPQTGFSDIKSHAFFRSIDWDLLEKKQALPPFQPQITDDYGLDNFDTQFTSEPVQLTPDDEDAIKRIDQSEFEGFEYINPLLLSTEESV		binding [3]: binds
CDC37 (protein, UniProt Q16543 1-378) MVDYSVWDHIEVSDDEDETHPNIDTASLFRWRHQARVERMEQFQKEKEELDRGCRECKRKVAECQRKLKELEVAEGGKAELERLQAEAQQLRKEERSWEQKLEEMRKKEKSMPWNVDTLSKDGFSKSMVNTKPEKTEEDSEEVREQKHKTFVEKYEKQIKHFGMLRRWDDSQKYLSDNVHLVCEETANYLVIWCIDLEVEEKCALMEQVAHQTIVMQFILELAKSLKVDPRACFRQFFTKIKTADRQYMEGFNDELEAFKERVRGRAKLRIEKAMKEYEEEERKKRLGPGGLDPVEVYESLPEELQKCFDVKDVQMLQDAISKMDPTDAKYHMQRCIDSGLWVPNSKASEAKEGEEAGPGDPLLEAVPKTGDEKDVSV		binding [4]: binds
MEK5 (enzyme, UniProt Q13163 1-448) MLWLALGPFPAMENQVLVIRIKIPNSGAVDWTVHSGPQLLFRDVLDVIGQVLPEATTTAFEYEDEDGDRITVRSDEEMKAMLSYYYSTVMEQQVNGQLIEPLQIFPRACKPPGERNIHGLKVNTRAGPSQHSSPAVSDSLPSNSLKKSSAELKKILANGQMNEQDIRYRDTLGHGNGGTVYKAYHVPSGKILAVKVILLDITLELQKQIMSELEILYKCDSSYIIGFYGAFFVENRISICTEFMDGGSLDVYRKMPEHVLGRIAVAVVKGLTYLWSLKILHRDVKPSNMLVNTRGQVKLCDFGVSTQLVNSIAKTYVGTNAYMAPERISGEQYGIHSDVWSLGISFMELALGRFPYPQIQKNQGSLMPLQLLQCIVDEDSPVLPVGEFSEPFVHFITQCMRKQPKERPAPEELMGHPFIVQFNDGNAAVVSMWVCRALEERRSQQGPP		binding [3]: binds

Second part, led by results:

binding [1]	Molecule	other results
binds	c-fos (from UniProt P01100 1-380)	
binds	c-myc (from UniProt P01106 1-454)	
